The target of the assay is T1, ASNA-1::GFP (C. elegans) (UniProt P30632).
T1 sequence: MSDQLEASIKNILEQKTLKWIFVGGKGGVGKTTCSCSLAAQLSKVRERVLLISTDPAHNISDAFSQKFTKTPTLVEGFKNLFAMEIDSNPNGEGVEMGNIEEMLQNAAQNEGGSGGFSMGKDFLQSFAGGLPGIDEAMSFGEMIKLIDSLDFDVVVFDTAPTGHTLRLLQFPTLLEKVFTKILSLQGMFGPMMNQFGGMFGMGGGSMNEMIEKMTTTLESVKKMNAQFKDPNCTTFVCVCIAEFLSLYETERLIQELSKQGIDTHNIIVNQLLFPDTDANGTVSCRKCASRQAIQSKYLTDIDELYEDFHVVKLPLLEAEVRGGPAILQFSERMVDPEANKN
The assay can be described thus: co-IP; anti-GFP magnetic beads (ChromoTek GFP-Trap) with 800-1000 µg lysate of adult worms co-expressing both tagged proteins, 1 h at 4°C; lysis in 10 mM Tris-HCl pH 7.4, 150 mM NaCl, 5 mM EDTA, 0.5% NP40; western blot. Also done with ablated ASI neurons (oyIs84), in daf-28(tm2308), kpc-1(gk8), ins-4(tm3620), unc-31(e928) and sod-2(gk257) mutants, and after 5 mM H2O2 for 30 min. On the technique in general: A western blot detects proteins with antibodies after separation by electrophoresis.

By UniProt entry, the sequences of proteins in these tests, tags left out. Where a name states a change or a piece, a line headed by the entry shows the natural chain unless it says otherwise.
UniProt Q22235: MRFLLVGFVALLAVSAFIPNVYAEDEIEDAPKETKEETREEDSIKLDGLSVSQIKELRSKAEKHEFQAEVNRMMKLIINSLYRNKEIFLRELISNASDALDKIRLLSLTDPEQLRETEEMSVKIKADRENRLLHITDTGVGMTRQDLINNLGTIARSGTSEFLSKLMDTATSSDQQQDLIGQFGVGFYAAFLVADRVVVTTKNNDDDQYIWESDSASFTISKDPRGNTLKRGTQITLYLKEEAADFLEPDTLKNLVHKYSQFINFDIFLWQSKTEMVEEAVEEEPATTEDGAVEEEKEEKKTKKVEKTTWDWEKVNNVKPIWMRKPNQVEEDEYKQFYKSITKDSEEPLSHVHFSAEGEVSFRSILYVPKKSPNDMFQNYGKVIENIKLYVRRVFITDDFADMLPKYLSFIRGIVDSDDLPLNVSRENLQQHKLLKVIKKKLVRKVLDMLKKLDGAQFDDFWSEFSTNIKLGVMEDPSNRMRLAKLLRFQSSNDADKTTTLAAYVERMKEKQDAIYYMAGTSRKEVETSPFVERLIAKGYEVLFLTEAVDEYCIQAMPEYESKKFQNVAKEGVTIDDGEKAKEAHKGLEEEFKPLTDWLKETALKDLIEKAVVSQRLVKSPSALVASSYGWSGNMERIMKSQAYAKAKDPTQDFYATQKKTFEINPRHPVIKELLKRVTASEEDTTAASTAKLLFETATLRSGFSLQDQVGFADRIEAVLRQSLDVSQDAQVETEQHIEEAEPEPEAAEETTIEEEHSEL

These are yes or no findings as the source states them, for the method shown. In cells and extracts the contact can be indirect. A result given as binding can be weak or reduced; the word gives no strength. Tags and fused reporters may be left off the sequences shown.

Regarding “Ollas::DAF-28::MYC (DAF-28 pro-peptide) (C. elegans)”, the binding entry is given as “no binding”.
As for “3xFlag::ENPL-1^ΔCBD (from UniProt Q22235)”, the binding result is given as “binds”.

(Values after PMC10112894.)
